Our source for the log2 fold change values is the supplement of paper PMC10849652.

Chains of the proteins cited; added tags and fusions are not shown. Lines headed by an entry give the natural chain unless they say otherwise; changes in a name come on top.
UniProt Q6P1L5: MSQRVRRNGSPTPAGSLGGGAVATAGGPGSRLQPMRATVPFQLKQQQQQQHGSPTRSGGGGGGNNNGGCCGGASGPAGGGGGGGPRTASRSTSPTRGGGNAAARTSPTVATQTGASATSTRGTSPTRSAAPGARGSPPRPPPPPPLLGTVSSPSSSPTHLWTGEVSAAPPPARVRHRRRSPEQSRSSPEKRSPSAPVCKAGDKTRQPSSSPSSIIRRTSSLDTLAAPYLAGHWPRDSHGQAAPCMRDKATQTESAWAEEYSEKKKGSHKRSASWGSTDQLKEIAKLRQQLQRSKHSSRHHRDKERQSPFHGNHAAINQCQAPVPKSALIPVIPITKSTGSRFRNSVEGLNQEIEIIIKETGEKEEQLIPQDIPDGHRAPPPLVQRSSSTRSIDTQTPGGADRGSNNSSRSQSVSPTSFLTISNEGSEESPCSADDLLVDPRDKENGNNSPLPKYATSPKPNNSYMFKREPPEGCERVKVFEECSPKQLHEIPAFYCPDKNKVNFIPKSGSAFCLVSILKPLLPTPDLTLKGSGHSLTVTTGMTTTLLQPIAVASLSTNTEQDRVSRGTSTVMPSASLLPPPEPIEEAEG
UniProt Q96CN4: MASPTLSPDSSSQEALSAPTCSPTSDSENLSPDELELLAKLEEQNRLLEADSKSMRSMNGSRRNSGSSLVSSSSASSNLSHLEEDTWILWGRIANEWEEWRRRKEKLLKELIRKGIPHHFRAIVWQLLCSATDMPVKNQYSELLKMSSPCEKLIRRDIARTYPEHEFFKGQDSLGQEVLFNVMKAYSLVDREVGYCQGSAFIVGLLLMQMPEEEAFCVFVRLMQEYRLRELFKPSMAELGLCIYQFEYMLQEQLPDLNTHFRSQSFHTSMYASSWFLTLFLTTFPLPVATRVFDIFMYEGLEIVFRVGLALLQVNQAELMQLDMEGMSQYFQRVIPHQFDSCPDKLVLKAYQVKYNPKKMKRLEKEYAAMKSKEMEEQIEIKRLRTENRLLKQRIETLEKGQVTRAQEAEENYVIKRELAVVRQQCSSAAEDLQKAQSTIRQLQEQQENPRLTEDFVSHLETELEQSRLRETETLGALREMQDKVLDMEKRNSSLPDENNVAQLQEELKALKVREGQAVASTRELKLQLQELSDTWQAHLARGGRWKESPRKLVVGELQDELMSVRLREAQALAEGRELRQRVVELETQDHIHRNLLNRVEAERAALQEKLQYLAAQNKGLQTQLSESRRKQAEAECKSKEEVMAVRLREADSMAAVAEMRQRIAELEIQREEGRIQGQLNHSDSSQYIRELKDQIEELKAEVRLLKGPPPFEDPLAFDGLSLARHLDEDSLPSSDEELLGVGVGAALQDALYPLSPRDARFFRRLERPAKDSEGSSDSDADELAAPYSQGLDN
UniProt P41212: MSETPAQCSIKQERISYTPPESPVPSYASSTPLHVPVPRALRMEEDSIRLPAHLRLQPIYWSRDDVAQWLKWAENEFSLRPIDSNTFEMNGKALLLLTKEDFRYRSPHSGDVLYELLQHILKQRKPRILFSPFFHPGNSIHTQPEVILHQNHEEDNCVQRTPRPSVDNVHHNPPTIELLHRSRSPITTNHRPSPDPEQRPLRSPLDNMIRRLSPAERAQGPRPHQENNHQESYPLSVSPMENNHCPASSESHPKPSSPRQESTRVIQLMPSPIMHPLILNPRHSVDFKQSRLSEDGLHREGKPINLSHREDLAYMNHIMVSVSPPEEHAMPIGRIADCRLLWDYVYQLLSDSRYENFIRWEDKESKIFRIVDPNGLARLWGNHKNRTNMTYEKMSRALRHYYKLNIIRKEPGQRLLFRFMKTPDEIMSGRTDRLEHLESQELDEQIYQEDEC
UniProt Q14264: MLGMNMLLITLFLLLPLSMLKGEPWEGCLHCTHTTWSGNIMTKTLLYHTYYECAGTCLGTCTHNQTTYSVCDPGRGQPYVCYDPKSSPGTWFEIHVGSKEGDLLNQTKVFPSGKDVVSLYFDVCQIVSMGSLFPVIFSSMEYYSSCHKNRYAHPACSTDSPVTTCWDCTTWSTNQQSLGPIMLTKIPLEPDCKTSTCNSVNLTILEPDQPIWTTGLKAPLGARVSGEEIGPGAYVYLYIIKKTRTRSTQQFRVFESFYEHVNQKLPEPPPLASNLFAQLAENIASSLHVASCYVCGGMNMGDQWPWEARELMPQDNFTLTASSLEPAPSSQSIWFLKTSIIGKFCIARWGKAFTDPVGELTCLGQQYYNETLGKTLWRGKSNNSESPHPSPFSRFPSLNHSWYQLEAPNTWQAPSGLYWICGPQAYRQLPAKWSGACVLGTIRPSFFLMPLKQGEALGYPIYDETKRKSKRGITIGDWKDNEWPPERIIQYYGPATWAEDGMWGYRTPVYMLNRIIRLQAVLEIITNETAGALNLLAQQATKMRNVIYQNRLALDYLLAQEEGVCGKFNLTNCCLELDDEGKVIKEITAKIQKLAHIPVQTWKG
UniProt Q86V87: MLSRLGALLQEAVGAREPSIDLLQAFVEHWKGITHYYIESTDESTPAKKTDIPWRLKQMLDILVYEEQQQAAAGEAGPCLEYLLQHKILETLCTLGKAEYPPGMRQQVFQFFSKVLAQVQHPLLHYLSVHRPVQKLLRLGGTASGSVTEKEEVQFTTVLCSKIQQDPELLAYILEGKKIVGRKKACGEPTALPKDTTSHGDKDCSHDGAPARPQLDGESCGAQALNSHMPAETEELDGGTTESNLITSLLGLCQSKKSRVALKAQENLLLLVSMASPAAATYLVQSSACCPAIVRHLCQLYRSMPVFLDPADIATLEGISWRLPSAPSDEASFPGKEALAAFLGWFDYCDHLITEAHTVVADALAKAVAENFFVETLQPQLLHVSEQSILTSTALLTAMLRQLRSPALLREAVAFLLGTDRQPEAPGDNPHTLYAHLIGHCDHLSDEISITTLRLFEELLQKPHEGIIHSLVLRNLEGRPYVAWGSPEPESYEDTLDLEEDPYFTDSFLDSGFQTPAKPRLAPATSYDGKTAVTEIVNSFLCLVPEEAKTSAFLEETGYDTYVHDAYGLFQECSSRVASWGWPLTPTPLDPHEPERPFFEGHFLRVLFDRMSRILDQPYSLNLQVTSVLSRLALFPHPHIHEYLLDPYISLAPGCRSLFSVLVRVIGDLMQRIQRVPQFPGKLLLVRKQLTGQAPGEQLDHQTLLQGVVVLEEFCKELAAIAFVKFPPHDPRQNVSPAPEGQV
UniProt Q96PZ2, whole entry, looked up: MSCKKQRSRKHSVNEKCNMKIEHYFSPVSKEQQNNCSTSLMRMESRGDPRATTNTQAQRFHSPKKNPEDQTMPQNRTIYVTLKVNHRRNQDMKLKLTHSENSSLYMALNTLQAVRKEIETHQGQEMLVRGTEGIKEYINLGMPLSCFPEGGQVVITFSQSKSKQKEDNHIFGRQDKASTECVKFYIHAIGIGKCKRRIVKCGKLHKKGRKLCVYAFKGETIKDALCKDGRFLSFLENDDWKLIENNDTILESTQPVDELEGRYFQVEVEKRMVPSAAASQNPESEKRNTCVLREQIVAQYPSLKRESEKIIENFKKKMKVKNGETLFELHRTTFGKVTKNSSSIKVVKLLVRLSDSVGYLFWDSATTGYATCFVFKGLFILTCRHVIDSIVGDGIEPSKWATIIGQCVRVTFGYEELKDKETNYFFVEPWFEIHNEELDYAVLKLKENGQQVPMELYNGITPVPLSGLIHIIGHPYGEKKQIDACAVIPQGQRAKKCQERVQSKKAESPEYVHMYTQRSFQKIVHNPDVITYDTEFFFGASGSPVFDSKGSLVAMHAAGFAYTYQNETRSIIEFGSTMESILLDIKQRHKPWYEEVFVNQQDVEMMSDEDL
UniProt Q5VUB5: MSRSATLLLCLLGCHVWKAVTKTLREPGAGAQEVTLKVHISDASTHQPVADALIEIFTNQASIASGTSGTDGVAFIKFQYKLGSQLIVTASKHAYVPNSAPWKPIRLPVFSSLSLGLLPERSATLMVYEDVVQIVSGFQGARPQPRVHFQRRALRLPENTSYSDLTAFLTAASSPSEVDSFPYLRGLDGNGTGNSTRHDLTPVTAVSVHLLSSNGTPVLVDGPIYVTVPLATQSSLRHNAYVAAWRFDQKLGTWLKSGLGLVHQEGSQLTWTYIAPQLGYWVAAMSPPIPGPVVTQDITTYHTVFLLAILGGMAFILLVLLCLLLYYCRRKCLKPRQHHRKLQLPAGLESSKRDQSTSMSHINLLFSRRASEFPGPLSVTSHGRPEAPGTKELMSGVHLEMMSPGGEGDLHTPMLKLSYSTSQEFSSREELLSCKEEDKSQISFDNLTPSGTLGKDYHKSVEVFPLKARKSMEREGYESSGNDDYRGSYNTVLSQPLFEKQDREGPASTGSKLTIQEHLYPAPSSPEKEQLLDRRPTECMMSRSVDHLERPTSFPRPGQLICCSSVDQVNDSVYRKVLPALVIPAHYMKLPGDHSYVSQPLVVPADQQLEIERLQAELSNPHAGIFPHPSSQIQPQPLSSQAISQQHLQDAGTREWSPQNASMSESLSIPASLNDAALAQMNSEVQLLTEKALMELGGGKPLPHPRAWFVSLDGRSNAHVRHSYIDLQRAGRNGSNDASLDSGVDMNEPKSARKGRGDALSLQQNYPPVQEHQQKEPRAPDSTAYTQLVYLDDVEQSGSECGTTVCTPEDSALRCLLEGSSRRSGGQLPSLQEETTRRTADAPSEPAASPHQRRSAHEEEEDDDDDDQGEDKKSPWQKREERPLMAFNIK
UniProt P00742, whole entry, looked up: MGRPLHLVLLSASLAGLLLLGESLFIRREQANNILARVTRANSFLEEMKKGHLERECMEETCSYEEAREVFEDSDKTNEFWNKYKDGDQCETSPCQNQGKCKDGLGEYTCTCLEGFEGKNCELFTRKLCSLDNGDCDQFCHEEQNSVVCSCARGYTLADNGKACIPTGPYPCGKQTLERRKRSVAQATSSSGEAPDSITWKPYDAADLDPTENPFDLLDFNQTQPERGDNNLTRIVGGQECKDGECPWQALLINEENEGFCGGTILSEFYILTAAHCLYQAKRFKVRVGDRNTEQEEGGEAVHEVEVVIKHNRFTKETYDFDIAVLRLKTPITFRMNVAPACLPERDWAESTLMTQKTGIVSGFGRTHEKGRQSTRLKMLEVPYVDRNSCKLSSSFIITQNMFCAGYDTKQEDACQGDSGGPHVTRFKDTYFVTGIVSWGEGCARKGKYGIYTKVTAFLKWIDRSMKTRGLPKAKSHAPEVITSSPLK

The list shows a part of the results.

What all share (assay): log2 fold change, soluble protein after heating vs DMSO (PISA); higher = thermal stabilisation; K562 lysate, 10 uM; active = over 0.2 and 3.5 SD of the protein, either way, in both replicates (recomputed)
Compound in assay [1]: CC(=O)c1cnc2ccc(-c3cc(Cl)c(O)c(Cl)c3)nc2c1N[C@H]1CC[C@H](CN(C)C)CC1
In short, it runs like this:
(§1)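 Dounce homogenisation of K562 pellets in PBS pH 7.4 with 1 mM MgCl2 produced a crude extract, used at 1 mg/mL protein. Exposure to 10 μM compound lasted 30 min, and aliquots were then heated for 3 min across 48°C-58°C, pooled and brought to 0.5% NP-40 at 4°C. The supernatant after 21,000xg for 90 min was quantified by TMTpro 16plex LC-MS/MS with channel sums equalised. Duplicate values are given as log-two fold change in thermal stability relative to solvent controls.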

Compound in a further assay: CC(C)(C)Cn1c(N)nc2ccc(-c3[nH]c(C(C)(C)C)nc3-c3ccc(F)cc3)nc21 [ralimetinib]
In short, it runs like this: as §1

Compound in assay [2]: CC(C)(O)CC(=O)NCCn1ccc2ncnc(Nc3ccc(Oc4cccc(C(F)(F)F)c4)c(Cl)c3)c21
In short, it runs like this: as §1

Compound in assay [3]: CC(C)C1=C2N=C(C=C(N2N=C1)NCC3=CC=CC=C3)NCCCCCCN
In short, it runs like this:
as §1

Compound in assay [4]: CC1=C(C(CC(=O)N1)C2=CC=C(C=C2)C(F)(F)F)C(=O)NC3=C(C=C4C(=C3)C=NN4)F
In short, it runs like this:
as §1

Compound in assay [5]: CC1=C(C2=C(C=C1)C(=O)C3=CC=CC=C3N2CCCN)C
In short, it runs like this:
as §1

Compound in assay [6]: CC1=C(C=C(C=C1)NC(=O)C2=CC(=CC=C2)C(C)(C)C#N)NC3=CC4=C(C=C3)N=CN(C4=O)C
In short, it runs like this:
as §1

Compound in assay [7]: CC1=C(C=C(C=C1)NC(=O)C2=CC(=CC=C2)N(C)C)NC(=O)C3=CC=C(C=C3)O
In short, it runs like this: as §1

Compound in assay [8]: CC1=CC=C(C=C1)SC2=C3C=C(SC3=CN=C2)C(=O)N
In short, it runs like this: as §1

Compound in the next assay: CCCS(=O)(=O)Nc1ccc(F)c(C(=O)c2c[nH]c3ncc(-c4ccc(Cl)cc4)cc23)c1F [vemurafenib]
In short, it runs like this:
as §1

Compound in assay [9]: CCCS(=O)(=O)Nc1ccc(F)c(C(=O)c2c[nH]c3ncc(Cl)cc23)c1F
In short, it runs like this:
as §1

Compound in a further assay: CC[C@@H]1C(=O)N(C)c2cnc(Nc3ccc(C(=O)N[C@H]4CC[C@H](N5CCN(CC6CC6)CC5)CC4)cc3OC)nc2N1C(C)C [volasertib]
In short, it runs like this: as §1

Compound in assay [10]: CCn1c(C(=O)N(C2CC2)C2CC2)cc2c3c(ncn3C)c(Nc3cc(C)n(C)n3)nc21
In short, it runs like this:
as §1

Compound in assay [11]: CCn1cc(-c2ccnc3[nH]c(-c4cccc(CN(C)C)c4)cc23)c(-c2ccc(NC(=O)N(C)C)cc2)n1
In short, it runs like this: as §1

Compound in assay [12]: CN1CCC(CNc2ccc3ncc(-c4cccc(OC(F)(F)F)c4)n3n2)CC1
In short, it runs like this: as §1

Compound in another assay: CN1CCN(CCOc2cc(OC3CCOCC3)c3c(Nc4c(Cl)ccc5c4OCO5)ncnc3c2)CC1 [saracatinib]
In short, it runs like this:
as §1

Compound in a further assay: CN1CCN(c2nc(C3=C(c4c[nH]c5ccccc45)C(=O)NC3=O)c3ccccc3n2)CC1 [sotrastaurin]
In short, it runs like this: as §1

Compound in assay [13]: CC[C@@H]1C(=O)N(C)c2cnc(Nc3ccc(C(=O)NC4CCN(C)CC4)cc3OC)nc2N1C1CCCC1
In short, it runs like this:
as §1

Compound in the next assay: C=CC(=O)N1CCC[C@@H](n2nc(-c3ccc(Oc4ccccc4)cc3)c3c(N)ncnc32)C1 [ibrutinib]
In short, it runs like this: as §1

Compound in another assay: CCN(CCCOc1ccc2c(Nc3cc(CC(=O)Nc4cccc(F)c4)[nH]n3)ncnc2c1)CCOP(=O)(O)O [barasertib]
In short, it runs like this:
as §1

Consider FAM117B (UniProt Q6P1L5), for which the log2 fold change in assay [1] was inactive: 0.024; in the assay with ralimetinib, inactive: -0.047; in assay [2], inactive: -0.11; in assay [3], inactive: 0.222; in assay [4], inactive: 0.01; in assay [5], inactive: 0.001. Also, the log2 fold change in assay [6] was inactive: 0.026; in assay [7] it was inactive: 0.112; in assay [8], inactive: 0.001; in the assay with vemurafenib, inactive: -0.093; in [9], inactive: 0.005; with volasertib, inactive: 0.02. Besides, the log2 fold change in assay [10] was inactive: -0.108; in assay [11] it was inactive: -0.083; in assay [12], inactive: -0.009; with saracatinib, inactive: -0.039; with sotrastaurin, inactive: 0.062.

As to EVI5L isoform 2 (UniProt Q96CN4), the log2 fold change was inactive: 0.057 in assay [11] and inactive: -0.183 in [12].

Turning to ETV6 (UniProt P41212), the log2 fold change in assay [1] is inactive: 0.091; in the assay with ralimetinib, inactive: 0.042; in assay [2], inactive: -0.072; in [4] it was inactive: 0.117; in assay [5] it was inactive: 0.062; in [6], inactive: 0.04. Moreover, the log2 fold change was inactive: -0.004 in assay [7]; inactive: -0.047 in assay [8]; inactive: -0.108 with vemurafenib; inactive: 0.111 in [9]; inactive: 0.045 in assay [13]; inactive: 0.008 with volasertib. Further, the log2 fold change in [10] was inactive: 0.092; in assay [11] it was inactive: -0.112; in assay [12], inactive: -0.093; in the assay with saracatinib, inactive: -0.034; in the assay with sotrastaurin it was inactive: 0.048.

For ERV3-1 (UniProt Q14264), the log2 fold change in assay [3] was inactive: 0; in assay [5] it was inactive: 0.155; in assay [6], inactive: -0.185; in [13], inactive: 0.043; with saracatinib it was inactive: 0; with sotrastaurin it was inactive: -0.071.

In the case of FAM160B2 (UniProt Q86V87), the log2 fold change is inactive: -0.094 with ralimetinib; inactive: 0.139 in assay [2]; inactive: -0.221 in assay [3]; inactive: 0.131 in assay [4]; inactive: 0 in assay [6]; inactive: 0.145 in assay [7]. Also, the log2 fold change in the assay with vemurafenib is inactive: 0.04; in assay [13] it was inactive: 0.018; in [10] it was inactive: 0.014; in assay [11], inactive: 0.125; in [12], inactive: -0.242; with sotrastaurin, inactive: 0.132.

Regarding FAM111A (UniProt Q96PZ2), the log2 fold change in assay [1] is inactive: 0.171; in the assay with ralimetinib, inactive: 0.116; in [2] it was inactive: 0.083; in assay [3], inactive: 0.125; in assay [5], inactive: -0.106; in assay [6], inactive: -0.093. The log2 fold change was inactive: 0.022 in assay [7]; inactive: -0.244 in assay [8]; inactive: -0.02 with vemurafenib; active: 0.432 in assay [9]; inactive: -0.34 in assay [13]; inactive: -0.045 with volasertib. Besides, the log2 fold change is inactive: 0.112 in [10], inactive: 0.055 with saracatinib and inactive: -0.016 in the assay with sotrastaurin.

As for FAM171A1 (UniProt Q5VUB5), the log2 fold change is inactive: 0.157 in assay [1]; inactive: -0.004 with ralimetinib; inactive: -0.053 in [2]; inactive: -0.107 in assay [3]; inactive: 0.056 in assay [5]; inactive: 0.103 in assay [7]. Further, the log2 fold change in assay [8] was inactive: -0.264; in assay [9], inactive: 0.208; with volasertib, inactive: -0.207; in assay [10] it was inactive: 0.097; with saracatinib, inactive: 0.229.

In the case of F10 (UniProt P00742), the log2 fold change with ibrutinib is inactive: -0.057; in the assay with barasertib it was inactive: 0.058.

Consider FAM120A, A0A494C0Y9, for which the log2 fold change in the assay with ralimetinib was inactive: 0.053; in assay [2], inactive: -0.018; in [3], inactive: -0.043; in assay [5], inactive: 0.011; in [7] it was inactive: -0.126; in assay [10], inactive: 0.004. Besides, the log2 fold change in the assay with saracatinib is inactive: -0.169.
